Source: PubChem BioAssay AID1159506 (NCATS, 2015).

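Genome-wide siRNA knockdown in TC32 Ewing sarcoma cells, comparing luciferase light from an NR0B1-promoter reporter with a CMV-promoter reporter 48 hours after transfection. Each siRNA was applied at 20 nM. A z-score of the log NR0B1-over-CMV signal, less the median of siRNAs with the same seed; more negative means a stronger specific loss of the NR0B1 reporter.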

The strongest results of the screen are mostly left out here. Sequences are the guide (antisense) strand, without overhang.

Sequence | target gene | seed-corrected z-score
AAUAGUCCAGCUGCGAUGG | RAD51-AS1 | -1.311
UUCUUUACACUUGAAAGAU | ZNF98 | 0.2872
AGAUGGUUGAGUACAGAUG | TMEM248 | -0.1161
UUUUUCAGUAGAAUGUACC | SELV | 1.89
UUUGUUGCAACAAGCUCUG | UBQLN1 | 0.3756
UAAUCUAGGAAUAUAGGAG | UGT1A5 | 0.1219
UUUGUUGGAACGGUACUUU | IL27RA | -1.38
UUUGGAGUGUUGAGAAUUU | CXCL12 | -0.2793
AUUGAGGAUCAGGAACUGC | MED22 | 1.059
UAUUGAUGUGCUGAAGUCU | NUDT13 | 0.1547
UAGAGUUACAGGCAGGUAC | GANAB | 0.5427
UCAGUUGUCAUGAACCUCC | KIAA0907 | 0.001979
UAUAGUAUCUAAUCCUUGG | ZMYM1 | 0.3775
UUUAAUUGGAACAUAAUGC | KDELC2 | 1.397
UAUAUCCUCGAGAUUCUCU | ZNF74 | 0.574
AAAGUAACAAGAGAGGAAG | TMEM145 | -0.1249
UUCGAUAUGGGUACAGUGG | CEP76 | 0.6135
UUCCUGGCCCUCGAGUUCA | SPDYE2 | -0.9724
UUAGUGGAGUGCGAAAUGG | FAM209B | -0.1037
UCUCCAAGUAGGUAGAUGC | ADTRP | 0.4068
UCAACUGCUACUAAUACAG | ATP7A | -1.895
UACGUCACAUUGUAUCCGC | L1CAM | -0.4129
AUAAUCUAUUGCUUCAUCU | CETN3 | 0.0168
AUAGUUCACGCUGCUGUCC | ALX1 | 0.203
UUAGAGAAAACUCCAGGAG | ABCG5 | -0.9896
UAGUUAGCAUCUCAUAUUC | STK31 | 0.03027
UACUCGACGGAGAUCAUUG | HEATR5B | 0.5474
UGAAAGUCUACAACCAUGU | RMI2 | -0.4451
AAAGUACGUGGUUCCGUCC | MADCAM1 | -0.9376
UCUUCCUCCAUAUCACAGC | HLA-E | -0.1715
UCUGAGCUCAGCCCGUUUG | KCTD17 | -0.7817
AAACAUACACUGAUAAAUG | SAGE2P | -0.3764
UUUGAUUAUAUGCUCUUCA | USP8P1 | -0.4662
UAAACAUCUAGCAAUUCGC | RAB11FIP4 | 0.6544
AUGCGUGAUUCUUUACUCU | LRRC37A17P | -0.06371
CUCGGAUCCGGAUCUUAGG | LOC390876 | 0.1434
UUAAGGGACAAAACGGGUC | CC2D2B | 0.05288
UAACUGAAGUUCAACAGCC | ADGRE2 | -0.4635
UUGAGUGUCAGUAAUGAUG | OR1G1 | -0.2777
UCAUAAACCCGGUCGAUGC | KARS | -0.144
UAUCUAAAAAGAAUAGACA | LOC730020 | 0.1267

4 of the entries, repeated:

* AAAGUAACAAGAGAGGAAG against TMEM145 | seed-corrected z-score -0.1249
* UUCUUUACACUUGAAAGAU against ZNF98 | seed-corrected z-score 0.2872
* UUUAAUUGGAACAUAAUGC against KDELC2 | seed-corrected z-score 1.397
* UUAGAGAAAACUCCAGGAG against ABCG5 | seed-corrected z-score -0.9896